{"source": "PubChem BioAssay AID662", "about": "(National Center for Advancing Translational Sciences (NCATS), 2007)", "note": "Where “and” joins values, the source holds several entries; their conditions need not be identical. Identical values can stand only once. Some of the results follow. These are further read-outs of the screen, such as a control signal, another cell line or another target. No call is given for them. The list favours compounds with an active or inconclusive main result. Potencies come from curve fits of mixed quality, noted in brackets."}
{"assay": "Cell signaling CRE-BLA (Fsk stim)", "conditions": "CHO CRE-bla reporter (cAMP response element driving beta-lactamase), forskolin EC10, beta-lactamase ratio; measured here: 460 nm blue channel", "outline": "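The 460nm/530nm emission ratio after CCF4 loading defined %Activity, from which AC50 values were obtained. CRE-bla CHO cells received compound dilution series together with an EC10 level of NKH 477 for 3 hours at 37 degrees Celsius.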"}
{"smiles": "Cc1nn(Cc2ccc(C(=O)Nc3ccc(C(=O)OC(C)C)cc3)o2)c(C)c1Cl", "AC50": "2.51 µM [rising, full curve]"}
{"smiles": "N#Cc1cc(Sc2ccccn2)c(Sc2ccccn2)cc1C#N", "AC50": "0.794 µM [rising, single point]"}
{"smiles": "c1cncc(-c2cc(-n3ccnc3)ncn2)c1", "AC50": "12.6 µM [rising, single point]"}
{"smiles": "CCOCCc1nnc(NC(=O)c2cccs2)s1", "AC50": "0.0126 µM [rising, single point]"}
{"smiles": "Cc1cc(C(=O)CSc2nc3ccccc3c(=O)[nH]2)c(C)n1C", "AC50": "10 µM [rising, partial curve]"}
{"smiles": "COC(=O)c1cccc(NC(=O)c2nn(C(C)C)c(=O)c3ccccc23)c1", "AC50": "2.51 µM [rising, full curve]"}
{"smiles": "CC(C)c1cc(C(F)(F)F)n2nc(C(=O)Nc3ccc4c(c3)OCO4)cc2n1", "AC50": "20 µM [rising, single point]"}
{"smiles": "Cc1nc2sc(C(=O)O)c(N)c2c2c1COC(C)(C)C2", "AC50": "20 µM [rising, single point]"}
{"smiles": "CCOC(=O)N1CCC(NC(=O)Cn2ncc3ccccc32)CC1", "AC50": "0.00316 µM [falling, full curve, poor fit]"}
{"smiles": "Cn1c(=O)c2c(nc(CN3CCN(c4ccccc4F)CC3)n2CCN2CCOCC2)n(C)c1=O", "AC50": "0.0398 µM [falling, full curve, poor fit]"}
{"smiles": "Cc1ccc(-c2nn(C)c(=O)c3ccccc23)cc1S(=O)(=O)NCCN1CCOCC1", "AC50": "3.16 µM [rising, partial curve]"}
{"smiles": "COC(=O)c1ccc(CNC(=O)COc2ccccc2Br)o1", "AC50": "0.631 µM [rising, full curve, poor fit]"}
{"smiles": "CCOC(=O)c1ccccc1NC(=O)c1ccccc1NS(C)(=O)=O", "AC50": "10 µM [rising, single point]"}
{"smiles": "Cc1ccc(Cl)cc1N1CCN(C(=O)c2ccc(NS(=O)(=O)c3c(C)noc3C)cc2)CC1", "AC50": "2.51 µM [rising, full curve]"}
{"smiles": "COc1cccc(Cn2c(=O)c(-c3ccc(Cl)cc3)nc3cnc(N4CCN(C)CC4)nc32)c1", "AC50": "3.98 µM [rising, full curve]"}
{"smiles": "CCCCCCCCCCCCCCCC(=O)O[C@H](CC(=O)O)C[N+](C)(C)C", "AC50": "20 µM [falling, partial curve, poor fit]"}
{"smiles": "COc1cccc(Nc2ncc3nc(-c4cccs4)c(=O)n(Cc4cccs4)c3n2)c1", "AC50": "2.51 µM [rising, full curve]"}
{"smiles": "CCC(Sc1nncn1C)C(=O)Nc1nnc(-c2ccccc2Cl)s1", "note": "(stereo unspecified)", "AC50": "12.6 µM [rising, partial curve]"}
{"smiles": "COc1cccc(C(=O)Nc2ncc3c(n2)CC(c2ccc(OC)cc2OC)CC3=O)c1", "note": "(stereo unspecified)", "AC50": "10 µM [rising, partial curve]"}
{"smiles": "Cn1ccc(C(=O)OCC(=O)c2ccccc2)n1", "AC50": "0.00316 µM [falling, full curve, poor fit]"}
{"smiles": "COC(=O)c1nc(NC(=O)C(C)(C)C)n[nH]1", "AC50": "12.6 µM [falling, partial curve]"}
{"smiles": "COc1cccc(-n2nnnc2SCC(=O)Nc2cccc(NC(C)=O)c2)c1", "AC50": "0.00794 µM [falling, full curve, poor fit]"}
{"smiles": "c1ccc(-n2ncc3c(NCc4ccccn4)ncnc32)cc1", "AC50": "12.6 µM [rising, single point]"}
{"smiles": "CCCCCCCCCCCCCCCC(=O)NC[C@@H](COP(=O)([O-])OCC[N+](C)(C)C)OCC", "AC50": "15.8 µM [falling, partial curve, poor fit]"}
{"smiles": "COc1cccc(C2=NOC(C(=O)NCC3CCCO3)C2)c1", "note": "(stereo unspecified)", "AC50": "5.01 µM [falling, single point]"}
{"smiles": "Cc1nnc(SCc2ccc(Cl)cc2)n1CC1CCCO1", "note": "(stereo unspecified)", "AC50": "7.94 µM [falling, partial curve]"}
{"smiles": "N#Cc1c(-c2ccccc2)cc(C2CC2)nc1N", "AC50": "5.01 µM [rising, partial curve]"}
{"smiles": "COc1cccc(Cn2c(N)c(C#N)c3nc4ccccc4nc32)c1OC", "AC50": "12.6 µM [rising, partial curve]"}
{"smiles": "COc1ccc(Cl)c(Cn2c(NCCCO)nc3c2c(=O)n(C)c(=O)n3C)c1", "AC50": "25.1 µM [rising, single point]"}
{"smiles": "C=C(CC)C(=O)c1ccc(OCC(=O)O)c(Cl)c1Cl", "AC50": "12.6 µM [falling, single point] and 15.8 µM [falling, partial curve]"}
{"smiles": "COC(=O)c1cc(OC)c(OC)cc1NC(=O)CCCCCN1C(=O)CCC1=O", "AC50": "20 µM [rising, single point]"}
{"smiles": "Cc1nc2cc(-n3ccc(=O)cc3)ccc2n1-c1ccccc1", "AC50": "3.98 µM [falling, partial curve, poor fit]"}
{"smiles": "Cc1cc2ccccn2c1C(=O)c1ccncc1", "AC50": "3.98 µM [falling, single point]"}
{"smiles": "CC1CN(c2nc3ccccc3nc2C(C#N)C(=O)OC2CCCCC2)CC(C)O1", "note": "(stereo unspecified)", "AC50": "25.1 µM [rising, single point]"}
{"smiles": "COC(=O)CCCCC1SCC(NC(=O)OC)C1NC(=O)OC", "note": "(stereo unspecified)", "AC50": "0.398 µM [falling, full curve, poor fit]"}
{"smiles": "O=C(NCc1ccco1)c1cnn2c(C(F)(F)F)cc(-c3cccs3)nc12", "AC50": "7.94 µM [rising, partial curve]"}
{"smiles": "CNCCNS(=O)(=O)c1cccc2cnccc12", "AC50": "15.8 µM [falling, partial curve]"}
{"smiles": "c1ccc2c(Nc3ccncc3)nc(-c3ccoc3)nc2c1", "AC50": "15.8 µM [rising, partial curve]"}
{"smiles": "O=C(NCCN1CCOCC1)NC1(C(F)(F)F)Oc2ccc(Cl)cc2O1", "note": "(stereo unspecified)", "AC50": "10 µM [falling, partial curve]"}
{"smiles": "NC(=O)C1CCN(CC(=O)c2c[nH]c3ccc(F)cc23)CC1", "AC50": "3.16 µM [falling, full curve]"}
{"smiles": "O=c1ccc2cc3c([nH]c4ccc(Br)cc43)oc-2c1O", "AC50": "0.00316 µM [falling, full curve, poor fit]"}
{"smiles": "COc1ccc(-n2cnc3c(sc4nccc(N(C)C)c43)c2=O)cc1", "AC50": "0.00501 µM [falling, full curve, poor fit]"}
{"smiles": "CC(=O)Nc1nc(C)nc(-c2ccccc2OC(C)=O)n1", "AC50": "10 µM [rising, single point]"}
{"smiles": "Cc1cccc(-n2c(Cc3cc(=O)[nH]c(=O)[nH]3)nnc2SCC(=O)NCc2ccco2)c1", "AC50": "0.00398 µM [falling, full curve, poor fit]"}
{"smiles": "Cc1ccc(C2C3CSCC=C3C(C#N)=C(N)C2(C#N)C#N)cc1", "note": "(stereo unspecified)", "AC50": "12.6 µM [rising, partial curve]"}
{"smiles": "Cc1cc(NC(=O)C2CC(=O)OC2c2ccccc2)no1", "note": "(stereo unspecified)", "AC50": "0.0794 µM [falling, partial curve, poor fit]"}
{"smiles": "CCn1c(=O)cc(SCC(=O)Nc2ccccc2N2CCN(C)CC2)c2ccccc21", "AC50": "1.26 µM [rising, partial curve]"}
{"smiles": "CCOC(=O)c1ccccc1NC(=O)C(C)Oc1ccccc1", "note": "(stereo unspecified)", "AC50": "12.6 µM [rising, partial curve]"}
{"smiles": "Clc1ccc(OCc2cn3cccnc3n2)c2ncccc12", "AC50": "3.16 µM [rising, single point]"}
{"smiles": "COc1ccc(OC)c(N=CC2=C(O)CC(C)(C)CC2=O)c1", "AC50": "12.6 µM [rising, partial curve]"}
{"smiles": "Cc1nc2c(-c3ccc(F)cc3)c(C)nn2c(C)c1CCC(=O)NC(C)CCc1ccco1", "note": "(stereo unspecified)", "AC50": "12.6 µM [falling, single point]"}
{"smiles": "O=C(Nc1ccc2nc(-c3ccco3)[nH]c2c1)c1ccco1", "AC50": "12.6 µM [rising, partial curve]"}
{"smiles": "O=C1NC(Nc2nccs2)(C(F)(F)F)C(=O)N1CCc1ccccc1", "note": "(stereo unspecified)", "AC50": "25.1 µM [rising, single point]"}
{"smiles": "COc1ccc(Nc2nc(C)cc(C)c2C#N)cc1OC", "AC50": "12.6 µM [rising, partial curve]"}
{"smiles": "CS(=O)(=O)Nc1cccc(-c2nc(NCCN3CCOCC3)c3ccccc3n2)c1", "AC50": "10 µM [rising, partial curve]"}
{"smiles": "CCCN(CCC)CCNC(=O)C(NS(=O)(=O)c1ccc2c(c1)CCC(=O)N2)c1ccccc1", "note": "(stereo unspecified)", "AC50": "12.6 µM [falling, single point]"}
{"smiles": "O=C(CN1CCN(c2ccccc2F)CC1)c1ccc2cc[nH]c2c1", "AC50": "10 µM [falling, partial curve]"}
{"smiles": "NC(=O)C1=CN([C@@H]2O[C@@H](COP(=O)(O)OP(=O)(O)OC[C@@H]3O[C@H](n4cnc5c(N)ncnc54)[C@@H](OP(=O)(O)O)[C@@H]3O)[C@H](O)[C@@H]2O)C=CC1", "AC50": "12.6 µM [falling, single point]"}
{"smiles": "COc1ccc(-c2nc3ccccc3c(=O)n2CCCN2CCOCC2)cc1", "AC50": "25.1 µM [rising, single point]"}
{"smiles": "CCOC(=O)c1c(C)c(C(=O)NCc2ccccc2OC)c(C)n1C", "AC50": "12.6 µM [rising, single point]"}
{"smiles": "CCOC(=O)c1sc(N(Cc2ccccc2)C(=O)CN2C(=O)CN(C)C2=O)nc1C", "AC50": "10 µM [rising, single point]"}
{"smiles": "CCCn1nc(-c2nnc(-c3ccc(C)c(C)c3)o2)c2ccccc2c1=O", "AC50": "5.01 µM [falling, single point]"}
{"smiles": "O=C(Nc1ccc2c(c1)OCO2)C1CCN(S(=O)(=O)c2cccc3cccnc23)CC1", "AC50": "25.1 µM [falling, single point]"}
{"smiles": "CC1=CCC2C(=O)N(c3cccc(C(=O)N(C)C4CCCCC4)c3)C(=O)C2C1", "note": "(stereo unspecified)", "AC50": "0.501 µM [rising, full curve]"}
{"smiles": "COc1ccc(N2CCN(C(=O)c3cc4c(-c5cccc(OC)c5)nn(C)c4s3)CC2)cc1", "AC50": "3.98 µM [rising, full curve]"}
{"smiles": "COc1ccc2[nH]c3c(=O)n(Cc4ccco4)cnc3c2c1", "AC50": "3.16 µM [rising, full curve]"}
